Measurements as given in the supplement of paper PMC5949888.
± gives the standard deviation of the averaged measurements. Most values lie at the floor of the assay. Slopes are relative: functional sequences can read slightly below zero.

tested on: Saccharomyces cerevisiae PS128 hsf1 delta, HSF1(1-493) fusion; experiment: growth estimate (transactivation domain function in HSF1 fusion, heat-shock survival) (a.u. (slope of normalised read count over time)); higher = stronger growth at 37°C, i.e. more transactivation activity; conditions: library: random library

Substance	growth estimate
CCSHLVSL	< -0.25
AGFSSEMVQAGYVAVAWPRR	< -0.25
SQPLPICGVKSRAPLFRSLR	< -0.25
STIPAFGLWRTSRGRALMSS	< -0.25
SGFSKV	< -0.25
RPRTANKVSIALEWFPLSMG	< -0.25
ESPASLH	< -0.25
GPGGWCLAASVMDLRFSPPE	< -0.25
GYVVRIHAAPPRSS	< -0.25
YLCGLLVPWTARQERPAVWV	< -0.25
PLREFLWVQLGIAVGES	< -0.25
RVRHFLTSLPYDFCSTGALA	< -0.25
REG	-0.2492 ± 0.0019
TDDLGDCKGILG	-0.243
RDDFEEVQLSLAQARLKKPT	< -0.25
LQVCAVNRV	< -0.25
GLPPVSGRRLINSMRP	< -0.25
CVAADTSRGKNVRSGAKSCS	< -0.25
VLGFMSADAGRPKVTGNGAP	< -0.25
VNEM	< -0.25
GVWGTLRLITRRPEVPMNNR	< -0.25
FEVVVPEYLPRTKLEARASS	< -0.25
LTVRWLRSDSGGQASVTAGH	-0.248

Substance	growth estimate
APRRLLACSGNHIECRWFCA	< -0.25
NLHRLEVEHFILTSQKSFNG	< -0.25
AIFFTLC	< -0.25
KFISS	< -0.25
GIAV	< -0.25
LARGRWPRVGHTLTHDRLIF	< -0.25
RSQIVQPGNVGEQPMSVAGS	< -0.25
LRSWDPGHKSRQSHAGRVSS	< -0.25
RVRGLHVLAECFFVRRIRPG	< -0.25
MTLA	< -0.25
CRAEAVPLVHGELSPRVIVG	< -0.25
GKIRPETD	< -0.25
PDRLGMCKDHWRFDPNVSGY	< -0.25
LGRAENTAGRWISGEELVRV	< -0.25
PGFWRSGSSDLPVIGIRMTA	< -0.25
ESDPGPSGGFARLGGFTTRV	< -0.25
SGQPHDAIAAGYISELE	< -0.25
FTYRRLIVLSGRYQHSLRRN	< -0.25
PHGPP	< -0.253
VSRECPNVSSAGFNYLLASG	< -0.25
RLYNACLIYGATGRHLYGRV	< -0.25
RLGASSQRGSEGWSQWPRGT	< -0.25
STSGR	< -0.25

Substance	growth estimate
LGSYG	< -0.25
YIAGATPTFARSRLSATRLP	< -0.25
KFTKDSVFISEILISNGDAL	< -0.25
TSSWTRADRFWEQHTERLIY	< -0.25
MSPAQFIARMIGLPCYPNRA	< -0.25
PFIFSGLAA	< -0.25
FRANSIPGSESQAWYPYCRG	-0.227
SLITG	< -0.25
PKVRVLSFADTSP	< -0.25
QIMIYPATLYLGFQRTVRTK	< -0.25
CMINAAYASP	< -0.25
LTFE	< -0.25
KCTSRLMDGSLGVTAWAIGS	< -0.25
FATLWS	< -0.25
RWKLDRRYALV	< -0.25
AALDTRVALRDMRQNMWFIC	< -0.25
MIVERPEPGSA	< -0.25
ELDYLTVECDRQVST	< -0.25
VWNKHSLGLSVDVKIGAHAR	< -0.25
RGSHTGALIVCI	< -0.25
YSVET	< -0.25
HAFYIGVDTESIKNLRPVVG	< -0.25
AVQLVGQSSSAAPAGADVIS	-0.245

Substance	growth estimate
WFVTVGSQAYGDLTYSCPLS	< -0.25
QSRLAISV	< -0.25
NEEEHRSDHGALVYLADIGW	< -0.25
RNQHS	< -0.25
LNGSSTKVPKLDPCCASVCT	< -0.25
SVGKIGGTDVGRIIELRS	-0.194
PYPGERAEHSG	< -0.25
PRSSLLRRTVCVAGSISSAV	< -0.25
VKFS	< -0.25
MCCVIDSNDALEDSSSAYFH	< -0.25
ARSGTTRR	< -0.25
VASGRWSI	< -0.25
HPWFSWCPVESILSEPKCIA	< -0.25
VIRNMFQSVVVRANVSQGSG	< -0.25
SSVSIGPII	-0.246
FIWII	< -0.25
GARGVTGHTGQ	< -0.25
VKDKKVFEGHIIYYGCMIRS	< -0.25
GAILNHNARL	< -0.25
RIGVYAFTLCGRPCSAKYDG	< -0.25
RTLESRWKSEYGFQEAQCRK	< -0.25
RTYLWRPILSSILMAERTLV	< -0.25
IPDNAAISSFLKVLVGGQPP	< -0.25

Substance	growth estimate
TGARNYRQGNMNGRGREFAL	< -0.25
SSLLKLRHPLHIIVADF	< -0.25
RIV	< -0.25
NVSLLPVTLGRPVTEGSPTQ	< -0.25
LHPTLRKLLCPTIVERRTKS	< -0.25
LVEVSF	< -0.25
THFQRGTRLPKAGEFWIPGY	< -0.25
HALT	< -0.25
RNPEQDLD	< -0.25
ELASKRI	< -0.25
KMVRPSAHQLALAICITALS	< -0.25
WCCYSL	< -0.25
IQASNATRGFGVRIHPERC	-0.246
SANKRAMKEG	< -0.25
GAISGWMKSGYQVVTSAFHG	< -0.25
RRQKVIYVNHPGVRPALKAK	< -0.25
AAVHYEDQLPPGRAESLIRG	< -0.25
AVPFVAIRLFLWS	< -0.25
ALRGVFVPRKECKLLHVYHG	< -0.25
TGVRGYEPYDK	< -0.25
GLVRLSACSNC	< -0.25
SVILGLRRQ	< -0.25
ESN	< -0.25

Part of the list above, as a markdown table.

| Substance | growth estimate |
| --- | --- |
| THFQRGTRLPKAGEFWIPGY | < -0.25 |
| KMVRPSAHQLALAICITALS | < -0.25 |
| GAISGWMKSGYQVVTSAFHG | < -0.25 |
| ESN | < -0.25 |

Later entries:

Substance	growth estimate
SRVKTDVMGADNEAIATI	-0.0748
SGTICLTGDLRIVPAC	< -0.25
FSERRTRKTSMASCLARAIR	< -0.25
VNKWPMQLLARGVTRGSQKS	< -0.25
FASCSSDGGTELDVNCSERF	< -0.25
LVRRDQMFIV	< -0.25
SCRIGV	< -0.25
RGTQGCRSKRLE	< -0.25
SCTLRAPSSKNRWQELHRRH	< -0.25
LLRIPLVSRVHSPRFSIGSW	< -0.25
GGDPP	< -0.25
GDRWVGGRSDLRLYQLILCE	< -0.25
PGTKTSAHSCACLVTNRRVA	< -0.25
MGYLL	< -0.25
LLKARCVS	< -0.25
PYRF	< -0.25
TFALLNGIQQGAWVHLYLCL	< -0.25
EHRVKIDLLLCLRAICHRRL	< -0.25
PIRLIGPPTGYFYGMYVQLA	< -0.25
LGKESRA	< -0.25
FQLKLQLHPWGFEGLSAGIL	< -0.25
SDEVSSLFRRDNREGAICTK	< -0.25
GPAEKVSAGLIVSG	< -0.25

Substance	growth estimate
NDSLT	< -0.25
VVRMRSDKHAYDRSSESIVA	< -0.25
GRHGGAILSRLRADLNTVPA	< -0.25
IGPRLLIHTAFSGHTAAVTC	< -0.25
KGPQRNNRGDLPQTNSGGPE	< -0.25
LREATAGSPI	< -0.25
DSTSMSR	< -0.25
HVNDDVFEANWGITLRQVRS	< -0.25
LSADSAERVVTLT	< -0.25
ARPGRHLIGLPVMMGIQRQN	< -0.25
KTSIFEVCTKPRVSIGWSSL	< -0.25
VLVWVRVSHCWPSNNGPHS	< -0.25
ARG	< -0.25
ELTVVFGTNRL	-0.246
YNSGVGGPCSLLLHRSLEHS	< -0.25
RIRRY	< -0.25
SPEDHSRSCFLKI	< -0.25
SLGTGVPSEIQRHMGRVLGS	< -0.25
PAKGSGGLLVGGGRPVDRKD	< -0.25
